This passage reports binding results from publication PMC8789055, “Structural and biochemical characterization of human Schlafen 5”.

The target in assay [1] is full-length human Schlafen 5 (SLFN5) (human) (UniProt Q08AF3). Briefly: SEC; analytical size exclusion chromatography of purified full-length SLFN5; single peak; both purified. (SEC sorts molecules by how far they enter the pores of the column.)
For assay [2], the target named is human SLFN5 N-terminal core domain (SLFN5 1-336) (human) (UniProt Q08AF3). Briefly: SEC-coupled right-angle light scattering (RALS); Superdex 200 10/300 Increase column coupled to a right-angle laser static light scattering device and refractive index detector; calibrated with BSA; both purified.

Results are given in words; binding and its absence hold for the method and conditions named.

B1: full-length human Schlafen 5 (SLFN5) (protein, UniProt Q08AF3 1-891)
chain: MSLRIDVDTNFPECVVDAGKVTLGTQQRQEMDPRLREKQNEIILRAVCALLNSGGGIIKAEIENKGYNYERHGVGLDVPPIFRSHLDKMQKENHFLIFVKSWNTEAGVPLATLCSNLYHRERTSTDVMDSQEALAFLKCRTQTPTNINVSNSLGPQAAQGSVQYEGNINVSAAALFDRKRLQYLEKLNLPESTHVEFVMFSTDVSHCVKDRLPKCVSAFANTEGGYVFFGVHDETCQVIGCEKEKIDLTSLRASIDGCIKKLPVHHFCTQRPEIKYVLNFLEVHDKGALRGYVCAIKVEKFCCAVFAKVPSSWQVKDNRVRQLPTREWTAWMMEADPDLSRCPEMVLQLSLSSATPRSKPVCIHKNSECLKEQQKRYFPVFSDRVVYTPESLYKELFSQHKGLRDLINTEMRPFSQGILIFSQSWAVDLGLQEKQGVICDALLISQNNTPILYTIFSKWDAGCKGYSMIVAYSLKQKLVNKGGYTGRLCITPLVCVLNSDRKAQSVYSSYLQIYPESYNFMTPQHMEALLQSLVIVLLGFKSFLSEELGSEVLNLLTNKQYELLSKNLRKTRELFVHGLPGSGKTILALRIMEKIRNVFHCEPANILYICENQPLKKLVSFSKKNICQPVTRKTFMKNNFEHIQHIIIDDAQNFRTEDGDWYGKAKFITQTARDGPGVLWIFLDYFQTYHLSCSGLPPPSDQYPREEINRVVRNAGPIANYLQQVMQEARQNPPPNLPPGSLVMLYEPKWAQGVPGNLEIIEDLNLEEILIYVANKCRFLLRNGYSPKDIAVLFTKASEVEKYKDRLLTAMRKRKLSQLHEESDLLLQIGDASDVLTDHIVLDSVCRFSGLERNIVFGINPGVAPPAGAYNLLLCLASRAKRHLYILKASV
B1: in assay [1], the binding entry was “no binding”.

B2: human SLFN5 N-terminal core domain (SLFN5 1-336) (domain or fragment, UniProt Q08AF3 1-336)
chain: MSLRIDVDTNFPECVVDAGKVTLGTQQRQEMDPRLREKQNEIILRAVCALLNSGGGIIKAEIENKGYNYERHGVGLDVPPIFRSHLDKMQKENHFLIFVKSWNTEAGVPLATLCSNLYHRERTSTDVMDSQEALAFLKCRTQTPTNINVSNSLGPQAAQGSVQYEGNINVSAAALFDRKRLQYLEKLNLPESTHVEFVMFSTDVSHCVKDRLPKCVSAFANTEGGYVFFGVHDETCQVIGCEKEKIDLTSLRASIDGCIKKLPVHHFCTQRPEIKYVLNFLEVHDKGALRGYVCAIKVEKFCCAVFAKVPSSWQVKDNRVRQLPTREWTAWMMEAD
For the molecule B2, the binding entry in assay [2] is given as “no binding”.
